Source: patent US20180320217A1, “METHODS FOR SAMPLING AND MEASURING ORAL LAVAGE PROTEINS” (The Procter & Gamble Company, priority 2017, published 2018)

Assays:
proteins in oral lavage = test: Abundance of proteins in human oral lavage (SomaLogic), TABLE 1; assay type: in vivo; conditions: for Means (Original Scale) High bleeder BL / Means (Original Scale) High bleeder W4 / Means (Original Scale) Low bleeder BL: abundance in oral lavage; for Means (Original Scale) High bleeder BL: high bleeders (gingivitis); for Means (Original Scale) High bleeder BL / Means (Original Scale) Low bleeder BL: baseline; for Means (Original Scale) High bleeder W4 / Fold Change High bleeder W4 vs High bleeder BL: high bleeders; for Means (Original Scale) High bleeder W4: week 4 of investigative products; for Means (Original Scale) Low bleeder BL: low bleeders (healthy); for Fold Change High bleeder BL vs Low bleeder BL / Fold Change High bleeder W4 vs High bleeder BL: oral lavage; for Fold Change High bleeder BL vs Low bleeder BL: high bleeders vs low bleeders at baseline; for Fold Change High bleeder W4 vs High bleeder BL: week 4 of investigative products vs baseline
[1] = tested on: peptides in gingival brush samples; test: Protein and peptide profiling of gingival brush samples (LC-MS/MS), TABLE 23; assay type: in vivo, human; conditions: peptide abundance, gingival brush samples; for Mean Cntl Bsl / Mean Cntl Wk3: control regimen; for Mean Cntl Bsl / Mean TrtBsl: baseline; for Mean Cntl Wk3 / Mean TrtWk3: week 3; for Mean TrtBsl / Mean TrtWk3: treatment regimen

B1: Complement C2 (protein, UniProt P06681 21-752, looked up)
Complement C2: APSCPQNVNISGGTFTLSHGWAPGSLLTYSCPQGLYPSPASRLCKSSGQWQTPGATRSLSKAVCKPVRCPAPVSFENGIYTPRLGSYPVGGNVSFECEDGFILRGSPVRQCRPNGMWDGETAVCDNGAGHCPNPGISLGAVRTGFRFGHGDKVRYRCSSNLVLTGSSERECQGNGVWSGTEPICRQPYSYDFPEDVAPALGTSFSHMLGATNPTQKTKESLGRKIQIQRSGHLNLYLLLDCSQSVSENDFLIFKESASLMVDRIFSFEINVSVAIITFASEPKVLMSVLNDNSRDMTEVISSLENANYKDHENGTGTNTYAALNSVYLMMNNQMRLLGMETMAWQEIRHAIILLTDGKSNMGGSPKTAVDHIREILNINQKRNDYLDIYAIGVGKLDVDWRELNELGSKKDGERHAFILQDTKALHQVFEHMLDVSKLTDTICGVGNMSANASDQERTPWHVTIKPKSQETCRGALISDQWVLTAAHCFRDGNDHSLWRVNVGDPKSQWGKEFLIEKAVISPGFDVFAKKNQGILEFYGDDIALLKLAQKVKMSTHARPICLPCTMEANLALRRPQGSTCRDHENELLNKQSVPAHFVALNGSKLNINLKMGVEWTSCAEVVSQEKTMFPNLTDVREVVTDQFLCSGTQEDESPCKGESGGAVFLERRFRFFQVGLVSWGLYNPCLGSADKNSRKRAPRSKVPPPRDFHINLFRMQPWLRQHLGDVLNFLPL
- Means (Original Scale) High bleeder BL (proteins in oral lavage): 4609
- Means (Original Scale) High bleeder W4 (proteins in oral lavage): 1511
- Means (Original Scale) Low bleeder BL (proteins in oral lavage): 455
- Fold Change High bleeder BL vs Low bleeder BL (proteins in oral lavage): 6.34
- Fold Change High bleeder W4 vs High bleeder BL (proteins in oral lavage): 0.64

B2: Contactin-1 (protein, UniProt Q12860 21-993, looked up)
Contactin-1: EFTWYRRYGHGVSEEDKGFGPIFEEQPINTIYPEESLEGKVSLNCRARASPFPVYKWRMNNGDVDLTSDRYSMVGGNLVINNPDKQKDAGIYYCLASNNYGMVRSTEATLSFGYLDPFPPEERPEVRVKEGKGMVLLCDPPYHFPDDLSYRWLLNEFPVFITMDKRRFVSQTNGNLYIANVEASDKGNYSCFVSSPSITKSVFSKFIPLIPIPERTTKPYPADIVVQFKDVYALMGQNVTLECFALGNPVPDIRWRKVLEPMPSTAEISTSGAVLKIFNIQLEDEGIYECEAENIRGKDKHQARIYVQAFPEWVEHINDTEVDIGSDLYWPCVATGKPIPTIRWLKNGYAYHKGELRLYDVTFENAGMYQCIAENTYGAIYANAELKILALAPTFEMNPMKKKILAAKGGRVIIECKPKAAPKPKFSWSKGTEWLVNSSRILIWEDGSLEINNITRNDGGIYTCFAENNRGKANSTGTLVITDPTRIILAPINADITVGENATMQCAASFDPALDLTFVWSFNGYVIDFNKENIHYQRNFMLDSNGELLIRNAQLKHAGRYTCTAQTIVDNSSASADLVVRGPPGPPGGLRIEDIRATSVALTWSRGSDNHSPISKYTIQTKTILSDDWKDAKTDPPIIEGNMEAARAVDLIPWMEYEFRVVATNTLGRGEPSIPSNRIKTDGAAPNVAPSDVGGGGGRNRELTITWAPLSREYHYGNNFGYIVAFKPFDGEEWKKVTVTNPDTGRYVHKDETMSPSTAFQVKVKAFNNKGDGPYSLVAVINSAQDAPSEAPTEVGVKVLSSSEISVHWEHVLEKIVESYQIRYWAAHDKEEAANRVQVTSQEYSARLENLLPDTQYFIEVGACNSAGCGPPSDMIEAFTKKAPPSQPPRIISSVRSGSRYIITWDHVVALSNESTVTGYKVLYRPDGQHDGKLYSTHKHSIEVPIPRDGEYVVEVRAHSDGGDGVVSQVKIS
- Means (Original Scale) High bleeder BL (proteins in oral lavage): 9982
- Means (Original Scale) High bleeder W4 (proteins in oral lavage): 5517
- Means (Original Scale) Low bleeder BL (proteins in oral lavage): 1919
- Fold Change High bleeder BL vs Low bleeder BL (proteins in oral lavage): 4.20
- Fold Change High bleeder W4 vs High bleeder BL (proteins in oral lavage): 0.60

B3: Contactin-5 (protein, UniProt O94779 19-1072, looked up)
Contactin-5: EYSKSLPGLSTSYAALLRIKKSSSSSLFGSKTRPRYSSPSLGTLSASSPSWLGAAQNYYSPINLYHSSDAFKQDESVDYGPVFVQEPDDIIFPTDSDEKKVALNCEVRGNPVPSYRWLRNGTEIDLESDYRYSLIDGTFIISNPSEAKDSGHYQCLATNTVGSILSREATLQFAYLGNFSGRTRSAVSVREGQGVVLMCSPPPHSPEIIYSWVFNEFPSFVAEDSRRFISQETGNLYISKVQTSDVGSYICLVKNTVTNARVLSPPTPLTLRNDGVMGEYEPKIEVHFPFTVTAAKGTTVKMECFALGNPVPTITWMKVNGYIPSKARLRKSQAVLEIPNVQLDDAGIYECRAENSRGKNSFRGQLQVYTYPHWVEKLNDTQLDSGSPLRWECKATGKPRPTYRWLKNGVPLSPQSRVEMVNGVLMIHNVNQSDAGMYQCLAENKYGAIYASAELKILASAPTFALNQLKKTIIVTKDQEVVIECKPQGSPKPTISWKKGDRAVRENKRIAILPDGSLRILNASKSDEGKYVCRGENVFGSAEIIASLSVKEPTRIELTPKRTELTVGESIVLNCKAIHDASLDVTFYWTLKGQPIDFEEEGGHFESIRAQASSADLMIRNILLMHAGRYGCRVQTTADSVSDEAELLVRGPPGPPGIVIVEEITESTATLSWSPAADNHSPISSYNLQARSPFSLGWQTVKTVPEIITGDMESAMAVDLNPWVEYEFRVVATNPIGTGDPSTPSRMIRTNEAVPKTAPTNVSGRSGRRHELVIAWEPVSEEFQNGEGFGYIVAFRPNGTRGWKEKMVTSSEASKFIYRDESVPPLTPFEVKVGVYNNKGDGPFSQIVVICSAEGEPSAAPTDVKATSVSVSEILVAWKHIKESLGRPQGFEVGYWKDMEQEDTAETVKTRGNESFVILTGLEGNTLYHFTVRAYNGAGYGPPSSEVSATTKKSPPSQAPSNLRWEQQGSQVSLGWEPVIPLANESEVVGYKVFYRQEGHSNSQVIETQKLQAVVPLPDAGVYIIEVRAYSEGGDGTASSQIRVPSYSGGKITS
- Means (Original Scale) High bleeder BL (proteins in oral lavage): 937
- Means (Original Scale) High bleeder W4 (proteins in oral lavage): 612
- Means (Original Scale) Low bleeder BL (proteins in oral lavage): 281
- Fold Change High bleeder BL vs Low bleeder BL (proteins in oral lavage): 3.15
- Fold Change High bleeder W4 vs High bleeder BL (proteins in oral lavage): 0.63

B4: ICAL_HUMAN (protein, UniProt P20810 1-708, looked up)
Calpastatin: MNPTETKAIPVSQQMEGPHLPNKKKHKKQAVKTEPEKKSQSTKLSVVHEKKSQEGKPKEHTEPKSLPKQASDTGSNDAHNKKAVSRSAEQQPSEKSTEPKTKPQDMISAGGESVAGITAISGKPGDKKKEKKSLTPAVPVESKPDKPSGKSGMDAALDDLIDTLGGPEETEEENTTYTGPEVSDPMSSTYIEELGKREVTIPPKYRELLAKKEGITGPPADSSKPIGPDDAIDALSSDFTCGSPTAAGKKTEKEESTEVLKAQSAGTVRSAAPPQEKKRKVEKDTMSDQALEALSASLGTRQAEPELDLRSIKEVDEAKAKEEKLEKCGEDDETIPSEYRLKPATDKDGKPLLPEPEEKPKPRSESELIDELSEDFDRSECKEKPSKPTEKTEESKAAAPAPVSEAVCRTSMCSIQSAPPEPATLKGTVPDDAVEALADSLGKKEADPEDGKPVMDKVKEKAKEEDREKLGEKEETIPPDYRLEEVKDKDGKPLLPKESKEQLPPMSEDFLLDALSEDFSGPQNASSLKFEDAKLAAAISEVVSQTPASTTQAGAPPRDTSQSDKDLDDALDKLSDSLGQRQPDPDENKPMEDKVKEKAKAEHRDKLGERDDTIPPEYRHLLDDNGQDKPVKPPTKKSEDSKKPADDQDPIDALSGDLDSCPSTTETSQNTAKDKCKKAASSSKAPKNGGKAKDSAKTTEETSKPKDD
- Mean Cntl Bsl [1]: 7447.8
- Mean Cntl Wk3 [1]: 9228.5
- Mean TrtBsl [1]: 7723.3
- Mean TrtWk3 [1]: 11067.6

B5: CALR_HUMAN (protein, UniProt P27797 18-417, looked up)
Calreticulin: EPAVYFKEQFLDGDGWTSRWIESKHKSDFGKFVLSSGKFYGDEEKDKGLQTSQDARFYALSASFEPFSNKGQTLVVQFTVKHEQNIDCGGGYVKLFPNSLDQTDMHGDSEYNIMFGPDICGPGTKKVHVIFNYKGKNVLINKDIRCKDDEFTHLYTLIVRPDNTYEVKIDNSQVESGSLEDDWDFLPPKKIKDPDASKPEDWDERAKIDDPTDSKPEDWDKPEHIPDPDAKKPEDWDEEMDGEWEPPVIQNPEYKGEWKPRQIDNPDYKGTWIHPEIDNPEYSPDPSIYAYDNFGVLGLDLWQVKSGTIFDNFLITNDEAYAEEFGNETWGVTKAAEKQMKDKQDEEQRLKEEEEDKKRKEEEEAEDKEDDEDKDEDEEDEEDKEEDEEEDVPGQAKDEL
- Mean Cntl Bsl [1]: 8830.2
- Mean Cntl Wk3 [1]: 15188.8
- Mean TrtBsl [1]: 11499.9
- Mean TrtWk3 [1]: 16791.2

B6: CHM4B_HUMAN (protein, UniProt Q9H444 2-224, looked up)
Charged multivesicular body …: SVFGKLFGAGGGKAGKGGPTPQEAIQRLRDTEEMLSKKQEFLEKKIEQELTAAKKHGTKNKRAALQALKRKKRYEKQLAQIDGTLSTIEFQREALENANTNTEVLKNMGYAAKAMKAAHDNMDIDKVDELMQDIADQQELAEEISTAISKPVGFGEEFDEDELMAELEELEQEELDKNLLEISGPETVPLPNVPSIALPSKPAKKKEEEDDDMKELENWAGSM
- Mean Cntl Bsl [1]: 325.9
- Mean Cntl Wk3 [1]: 1287.6
- Mean TrtBsl [1]: 616.9
- Mean TrtWk3 [1]: 1454.2

B7: CLCB_HUMAN (protein, UniProt P09497 1-229, looked up)
Clathrin light chain B: MADDFGFFSSSESGAPEAAEEDPAAAFLAQQESEIAGIENDEGFGAPAGSHAAPAQPGPTSGAGSEDMGTTVNGDVFQEANGPADGYAAIAQADRLTQEPESIRKWREEQRKRLQELDAASKVTEQEWREKAKKDLEEWNQRQSEQVEKNKINNRIADKAFYQQPDADIIGYVASEEAFVKESKEETPGTEWEKVAQLCDFNPKSSKQCKDVSRLRSVLMSLKQTPLSR
- Mean Cntl Bsl [1]: 945.1
- Mean Cntl Wk3 [1]: 3203.2
- Mean TrtBsl [1]: 1495.8
- Mean TrtWk3 [1]: 3625.8

B8: COR1A_HUMAN (protein, UniProt P31146 2-461, looked up)
Coronin-1A: SRQVVRSSKFRHVFGQPAKADQCYEDVRVSQTTWDSGFCAVNPKFVALICEASGGGAFLVLPLGKTGRVDKNAPTVCGHTAPVLDIAWCPHNDNVIASGSEDCTVMVWEIPDGGLMLPLREPVVTLEGHTKRVGIVAWHTTAQNVLLSAGCDNVIMVWDVGTGAAMLTLGPEVHPDTIYSVDWSRDGGLICTSCRDKRVRIIEPRKGTVVAEKDRPHEGTRPVRAVFVSEGKILTTGFSRMSERQVALWDTKHLEEPLSLQELDTSSGVLLPFFDPDTNIVYLCGKGDSSIRYFEITSEAPFLHYLSMFSSKESQRGMGYMPKRGLEVNKCEIARFYKLHERRCEPIAMTVPRKSDLFQEDLYPPTAGPDPALTAEEWLGGRDAGPLLISLKDGYVPPKSRELRVNRGLDTGRRRAAPEASGTPSSDAVSRLEEEMRKLQATVQELQKRLDRLEETVQAK
- Mean Cntl Bsl [1]: 15288.9
- Mean Cntl Wk3 [1]: 19325.5
- Mean TrtWk3 [1]: 16177.7

B9: CYTA_HUMAN (protein, UniProt P01040 1-98, looked up)
Cystatin-A: MIPGGLSEAKPATPEIQEIVDKVKPQLEEKTNETYGKLEAVQYKTQVVAGTNYYIKVRAGDNKYMHLKVFKSLPGQNEDLVLTGYQVDKNKDDELTGF
- Mean Cntl Bsl [1]: 8213.5
- Mean Cntl Wk3 [1]: 14863.4
- Mean TrtBsl [1]: 14851.3
- Mean TrtWk3 [1]: 20781.0
